# Measurements published in PubChem BioAssay AID1671190 (National Center for Advancing Translational Sciences (NCATS), 2021).
# Sequences of proteins named here, by UniProt entry; tags and fusion partners are left off. A change or cut given only in a name is not applied to a line headed by its entry.
# UniProt P18054: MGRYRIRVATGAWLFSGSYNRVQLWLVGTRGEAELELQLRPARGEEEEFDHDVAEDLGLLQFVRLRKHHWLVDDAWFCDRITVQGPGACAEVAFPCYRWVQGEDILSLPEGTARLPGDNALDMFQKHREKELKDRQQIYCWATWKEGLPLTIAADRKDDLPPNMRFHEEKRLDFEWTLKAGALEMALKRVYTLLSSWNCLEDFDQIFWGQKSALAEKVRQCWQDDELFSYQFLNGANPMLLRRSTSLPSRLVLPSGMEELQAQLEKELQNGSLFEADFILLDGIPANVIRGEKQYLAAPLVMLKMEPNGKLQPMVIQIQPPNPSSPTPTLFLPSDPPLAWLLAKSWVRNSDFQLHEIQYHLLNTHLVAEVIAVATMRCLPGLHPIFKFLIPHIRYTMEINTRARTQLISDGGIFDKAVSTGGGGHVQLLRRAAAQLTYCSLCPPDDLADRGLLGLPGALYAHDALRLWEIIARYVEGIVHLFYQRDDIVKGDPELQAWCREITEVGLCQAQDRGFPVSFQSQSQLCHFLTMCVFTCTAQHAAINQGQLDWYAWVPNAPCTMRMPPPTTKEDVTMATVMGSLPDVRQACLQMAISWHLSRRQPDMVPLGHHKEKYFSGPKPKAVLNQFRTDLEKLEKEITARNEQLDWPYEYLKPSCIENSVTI
# “And” between values parts separate entries of the source, which are not always exact repeats. Identical values can stand only once. In all, about 580,000 compounds went through this assay and about 6,100 (1.1%) were called active. The shares of active, inactive and inconclusive entries below differ from those in the screen. Calls follow the shape of the dose curve; as a rule, active = well fitted inhibition curve with a large enough effect; inconclusive = small, poorly fitted or top-dose-only effect, or another doubt; inactive = no such curve, though single readings can be large or run the other way. A potency beside an inconclusive call is a rough fit, not a confirmed value. Peptide text beside a SMILES is read from it.
# Molecular target: Polyunsaturated fatty acid lipoxygenase ALOX12 (Homo sapiens) (UniProt P18054)
# Test: Primary qHTS assay for inhibitors of human arachidonate 12S-lipoxygenase (ALOX12): Round 2
# Settings: purified 12hLO, xylenol orange hydroperoxide absorbance; series mostly up to 108 µM
# Method in brief: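 Purified human 12hLO at 150 nM in 25 mM Hepes, 0.01% Triton X-100, pH 7.0, preincubated 15 min at room temperature with compound. Reaction started with 40 uM arachidonic acid, 30 min at room temperature. Hydroperoxide measured by Fe-xylenol orange, 573/405 nm absorbance ratio.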
# Potency is read from the fitted curve at half-maximal effect.
row,Structure (SMILES),Potency
1,CC(C)(C)c1ccccc1NC(=O)Nc1nc(C(N)c2ccccc2Cl)cs1 (configuration not stated),"inconclusive: 100 µM [inhibitor, single point]"
2,O=C(CS(=O)c1ccc(C(F)(F)F)cc1[N+](=O)[O-])Oc1ccccc1 (configuration not stated),"inconclusive: 20 µM [inhibitor, partial curve, poor fit]"
3,CCOc1ccc(NC(=O)CN(C)C(=O)c2ccc3c(c2)S(=O)(=O)N=C2CCCCCN23)cc1OCC,inactive
4,O=C(N/N=C\C=C\c1ccco1)c1cncc(Br)c1,inactive
5,COC(=O)C[C@@H]1CC[C@H](NC(=O)c2cnccn2)[C@@H](CO)O1,"inconclusive: 39.8 µM [inhibitor, partial curve]"
6,Cc1ccccc1C(=O)NC(=S)Nc1ccc2[nH]c(=O)[nH]c2c1,"inconclusive: 50.1 µM [inhibitor, partial curve, poor fit]"
7,CSc1cccc(NC(=O)OC2CCCCCCCCCCC2)c1,"inconclusive: 35.5 µM [inhibitor, partial curve, poor fit]"
8,COc1cccc(C2(c3ccc(O)cc3)CCCC2)c1,"inconclusive: 39.8 µM [inhibitor, partial curve, poor fit]"
9,O=S(=O)(Nc1ncn[nH]1)c1ccc(Cl)cc1,"inconclusive: 3.98 µM [inhibitor, full curve, poor fit]"
10,Cc1ccc(Cc2c(-c3cccc(Br)c3)nc3cc(C)c(Br)c(C)n23)cc1,"inconclusive: 50.1 µM [inhibitor, partial curve, poor fit]"
11,CN(C)S(=O)(=O)c1ccc(N2CCCC2)c(C(=O)Nc2ccc(F)cc2F)c1,"inconclusive: 50.1 µM [inhibitor, partial curve, poor fit]"
12,CCCc1c(O)nc(SCCN(CCC)CCC)[nH]c1=O,"inconclusive: 44.7 µM [inhibitor, partial curve, poor fit]"
13,COc1ccc(C(=O)Nc2c(N)nc(SCC(=O)NCC3CCCO3)[nH]c2=O)cc1 (configuration not stated),"inconclusive: 56.2 µM [inhibitor, partial curve, poor fit]"
14,COc1cc(Cc2nc3ccccc3n2C(C)c2nc3ccccc3[nH]2)cc(OC)c1 (configuration not stated),"inconclusive: 141 µM [inhibitor, single point]"
15,CN(C)/C=N/c1sc2c(c1C#N)CCCCC2,inactive
16,COc1cccc2sc(N(CCCN(C)C)C(=O)C(c3ccccc3)c3ccccc3)nc12,"inconclusive: 50.1 µM [inhibitor, partial curve, poor fit]"
17,Cc1ccc(C(=O)N2CCC3(CC2)C(=O)NCN3Cc2ccc(Cl)cc2)cc1,"inconclusive: 100 µM [inhibitor, partial curve, poor fit]"
18,CN(C)S(=O)(=O)c1ccc(-c2nc(C#N)c(NCc3ccc(F)cc3)o2)cc1,"inconclusive: 31.6 µM [inhibitor, single point]"
19,Cc1nnc(NC(=O)c2ccc(-c3ccc(Cl)cc3)o2)s1,"inconclusive: 79.4 µM [inhibitor, partial curve, poor fit]"
20,CS(=O)(=O)N1C[C@H]2CCN(C(=O)c3c(F)cccc3F)C[C@H]21,inactive
21,CC1(C(=O)NS(=O)(=O)c2cccc(C#N)c2)CCN1C(=O)c1ccccc1CCc1ccccc1 (configuration not stated),"inconclusive: 5.62 µM [inhibitor, full curve, poor fit]"

row,Structure (SMILES),Potency
1,Cc1cc(O)c2c(c1O)C(=O)C(O)=C(O)C2=O,active: 28.2 µM
2,N#C/C(=C\c1cccnc1)C(=O)Nc1ccccc1,inactive
3,CCN1CCN(S(=O)(=O)c2ccc(OC)c3ccccc23)CC1,"inconclusive: 11.2 µM [inhibitor, full curve]"
4,CC(=O)NC(Cc1ccccc1)C(=O)NC(Cc1ccccc1)C(=O)O (stereo not drawn) (Ac-Phe-Phe-OH; configuration not given here),"inconclusive: 2.82 µM [inhibitor, full curve, poor fit]"
5,Cc1cc2c3ccc(C)n3ccn2c1,"inconclusive: 112 µM [inhibitor, partial curve, poor fit]"
6,COc1cc(/C=N/N2CCN(Cc3ccccc3)CC2)cc(OC)c1OC(C)=O,"inconclusive: 28.2 µM [inhibitor, single point]"
7,Fc1ccc(-c2nn3c(C4COc5ccccc5O4)nnc3s2)cc1 (configuration not stated),"inconclusive: 50.1 µM [inhibitor, partial curve, poor fit]"
8,CCOc1ccc(Cl)cc1S(=O)(=O)N1CCN(c2ccc(C)c(C)c2)CC1,"inconclusive: 0.251 µM [inhibitor, full curve, poor fit]"
9,COCCN1CCCN(C(=O)C2CC2)c2ccccc21,"inconclusive: 28.2 µM [inhibitor, full curve]"
10,CN(C)S(=O)(=O)c1cccc(-c2nn(-c3ccccc3)cc2/C=C2\SC(=S)N(CC(=O)O)C2=O)c1,active: 39.8 µM
11,Cc1cc(Br)ccc1NCc1ccccn1,"inconclusive: 0.316 µM [inhibitor, full curve]"
12,Cc1ccc2c(c1)c(CC(=O)Nc1ccc(C)c(F)c1)c(C(=O)O)n2C,"inconclusive: 11.2 µM [inhibitor, partial curve, poor fit] and inconclusive: 50.1 µM [inhibitor, partial curve, poor fit]"
13,Cc1ccc(-c2csc(NC(=O)CCNC(=O)c3ccccc3Cl)n2)cc1,inactive
14,COc1ccc(OC)c(NC(=O)CSc2ncc3c(n2)-c2ccccc2N(C)S3(=O)=O)c1,"inconclusive: 89.1 µM [inhibitor, partial curve, poor fit]"
15,CN(Cc1ccccc1)C(=O)COC(=O)CNS(=O)(=O)c1ccc2ccccc2c1,"inconclusive: 89.1 µM [inhibitor, partial curve, poor fit]"
16,Cn1c(=O)n(C)c2cc([N+](=O)[O-])c(N3CCN(S(=O)(=O)c4ccc5ccccc5c4)CC3)cc21,inactive
17,CCCNC(=O)c1ccc(-c2nc(CS(=O)(=O)c3ccc(C)cc3)c(C)o2)cc1,"inconclusive: 56.2 µM [inhibitor, partial curve, poor fit]"
18,Cc1cc(C)n(-c2cccc(C(=O)NCC3Cc4cc(Cl)cc(-c5cnccn5)c4O3)c2)n1 (configuration not stated),inactive
19,Cc1ccc(C(=O)OCC(=O)c2ccc(S(=O)(=O)N3CCCCC3)cc2)o1,"inconclusive: 35.5 µM [inhibitor, partial curve, poor fit]"
20,O=C(NCc1ccccn1)c1cccc(NS(=O)(=O)c2ccccc2F)c1,inactive
21,CO/N=C/NC(=O)NOCc1ccc(Cl)cc1Cl,inactive

row,Structure (SMILES),Potency
1,O=C(c1ccc2c(c1)OCO2)N1C[C@@H]2[C@H](c3ccccc31)[C@H](CO)N2CC1CCCC1,"inconclusive: 44.7 µM [inhibitor, partial curve, poor fit]"
2,COCc1cc(CNC(=O)C2(Oc3ccc(Cl)cc3)CCNCC2)[nH]n1,"inconclusive: 3.55 µM [inhibitor, full curve, poor fit]"
3,Cc1ccccc1C(=O)N1CCC(C(=O)Nc2ccc(C)c(S(=O)(=O)N3CCCCC3)c2)CC1,inactive
4,OCc1cnc(SCc2ccc(F)cc2)n1Cc1ccc(F)cc1,"inconclusive: 89.1 µM [inhibitor, partial curve, poor fit]"
5,C/C(Cn1cnc([N+](=O)[O-])n1)=N\NC(=O)c1cccc(F)c1,"inconclusive: 4.47 µM [inhibitor, full curve, poor fit]"
6,N#CC(C(=O)CSc1ccc2c(c1)OCCO2)c1nc(-c2ccccc2)cs1 (configuration not stated),active: 10 µM
7,CCc1ccc(OCC(O)CN2CCC(CN3C(=O)c4cccc5cccc(c45)C3=O)CC2)cc1 (configuration not stated),inactive
8,CCOc1ccc(NC(=O)C(C#N)=C2CCC(C)CC2)cc1 (configuration not stated),"inconclusive: 158 µM [inhibitor, single point]"
9,O=C1CCC/C1=c1\s/c(=C/c2cccnc2)c(=O)n1-c1ccccc1,"inconclusive: 12.6 µM [inhibitor, full curve, poor fit]"
10,O=C(/C=C/c1ccc(N2CCC(c3ccccc3)=N2)cc1)c1ccccc1,"inconclusive: 22.4 µM [inhibitor, partial curve, poor fit]"
11,C[C@H](NC(=O)C[C@@H]1C[C@@H]2c3cc(NC(=O)C4CCC4)ccc3O[C@@H]2[C@@H](CO)O1)c1ccccc1,"inconclusive: 126 µM [inhibitor, single point]"
12,CC(=O)c1ccc(S(=O)(=O)NCC(=O)NC(c2nc3ccccc3[nH]2)C(C)C)cc1 (configuration not stated),"inconclusive: 112 µM [inhibitor, single point]"
13,Cc1ccc(C2C(C#N)=C(N)Oc3cc(C)oc(=O)c32)o1 (configuration not stated),"inconclusive: 39.8 µM [inhibitor, partial curve, poor fit]"
14,CCOC(=O)c1ccc(NC(=O)CSc2ncnc3c(-c4ccccc4)c[nH]c23)cc1,inactive
15,CN1CCN(/N=C/c2nc(-c3ccc(Cl)cc3)n3ccccc23)CC1,"inconclusive: 44.7 µM [inhibitor, partial curve, poor fit]"
16,CC1(C)Cc2cccc(OCC(=O)NCCc3ccc(S(N)(=O)=O)cc3)c2O1,inactive
17,CCC(COC(=O)Nc1cccc(C)c1C)NC(=O)OCC(C)C (configuration not stated),inactive
18,Brc1ccc(C2=CC(c3cccs3)n3ncnc3N2)cc1 (configuration not stated),active: 39.8 µM
19,O=C(NC[C@H]1O[C@@H](CO)[C@@H](O)[C@H]1N1CCN(c2cccc(C(F)(F)F)c2)CC1)Nc1ccc(F)cc1F,"inconclusive: 25.1 µM [inhibitor, single point]"
20,NNC(=S)NCCc1ccccc1,"inconclusive: 44.7 µM [inhibitor, partial curve, poor fit]"
